Experimental data as given in patent publication US20260193326A1.
No constants are given. Whether binding was seen depends on the method and setting. A result given as binding can be weak or reduced; the word gives no strength.

What was measured:
Experiment in all cases: SPR, AAV amine-coupled to CM5 chip
[1] = molecular target: AAV8 (adeno-associated virus serotype 8 (AAV8))
[2] = molecular target: AAV5 (adeno-associated virus serotype 5 (AAV5))
[3] = molecular target: AAV9 (adeno-associated virus serotype 9 (AAV9))

Measured: binding

B1: A4-B2 (bispecific antibody)
chain: VQLQESGGGLVQAGGSLRLSCAASGSRFSINTMGWYRQAPGKQREFVATVTRGGNTNYAESVKGRFTISRDNAKNTVYLQMNSLRPEDTAVYYCHVDEVRDSSWTTSNIWGQGTQVTVSSGGGGSGGGGSGGGGSVQLQESGGGLVQAGGSLRLSCAASGSTFSINTMGWYRQAPGKQRELVATITRGGNTNYADSVKGRFTISRDNAKNTVYLQMNSLRPEDTAVYYCHVDEVRQSSWTTSNLWGQGTQVTVSS
binds: all assays above

B2: A4-B3 (VHH)
chain: VQLVESGGGLVQPGGSLRLSCAASGRSFSINTMGWFRQAPGKGLEAVAIVTRGGSTYYADSVKGRFTISRDNSKNTLYLQMNSLRAEDTAVYYCHIDEVRQSSWTTSNIWGQGTLVTVSSGGGGSGGGGSGGGGSVQLVESGGGLVQPGGSLRLSCAASGRSFSINTMGWFRQAPGKGLEAVAIVTRGGSTYYADSVKGRFTISRDNSKNTLYLQMNSLRAEDTAVYYCHIDEVRQSSWTTSNIWGQGTLVTVSS
binds: all assays above

B3: A4-B4 (bispecific antibody)
chain: VQLVESGGGLVQPGGSLRLSCAASGRSFSINTMGWFRQAPGKGLEAVAIVTRGGSTYYADSVKGRFTISRDNSKNTLYLQMNSLRAEDTAVYYCHIDEVRQSSWTTSNIWGQGTLVTVSSGGGGSGGGGSGGGGSVQLVESGGGLVQPGGSLRLSCAASGSIFSINLMGWFRQAPGKGLELVAIITPGGNTYYADSVKGRFTISRDNSKNTVYLQMNSLRAEDTAVYYCHVDEVRQSSWTTSNLWGQGTLVTVSS
binds: all assays above

B4: A4-C1 (VHH)
chain: VQLQESGGGLVQPGGSLRLSCAASGSGFSINTMGWYRQAPGKQRELVATVTRDGSTNYADFVKGRFTISRDNAKNTVYLQMNSLRPEDTAVYYCHLDEVRESSWTTSNLWGQGTQVTVSSGGGGSGGGGSGGGGSVQLQESGGGLVQPGGSLRLSCAASGSGFSINTMGWYRQAPGKQRELVATVTRDGSTNYADFVKGRFTISRDNAKNTVYLQMNSLRPEDTAVYYCHLDEVRESSWTTSNLWGQGTQVTVSSGGGGSGGGGSGGGGSVQLQESGGGLVQPGGSLRLSCAASGSGFSINTMGWYRQAPGKQRELVATVTRDGSTNYADFVKGRFTISRDNAKNTVYLQMNSLRPEDTAVYYCHLDEVRESSWTTSNLWGQGTQVTVSS
binds: all assays above

B5: A4-C2 (VHH)
chain: VQLQESGGGLVQPGGSLRLSCAASGSAFSINTMGWYRQAPGKQRELVASVTPGGSTNYADSVKGRFTISRDNAKNTIYLQMNSLRPEDTAVYYCHLDEVRESSWTTSNLWGQGTQVTVSSGGGGSGGGGSGGGGSVQLQESGGGLVQPGGSLRLSCAASGSAFSINTMGWYRQAPGKQRELVASVTPGGSTNYADSVKGRFTISRDNAKNTIYLQMNSLRPEDTAVYYCHLDEVRESSWTTSNLWGQGTQVTVSSGGGGSGGGGSGGGGSVQLQESGGGLVQPGGSLRLSCAASGSAFSINTMGWYRQAPGKQRELVASVTPGGSTNYADSVKGRFTISRDNAKNTIYLQMNSLRPEDTAVYYCHLDEVRESSWTTSNLWGQGTQVTVSS
binds: all assays above

B6: A4-C3 (bispecific antibody)
chain: VQLQESGGGLVQPGGSLRLSCAASGSIFSINLMGWYRQAPGKQRELVATITRGGNTNYAGSVKGRFTISRDNAKNTVYLQMNSLRPEDTAVYYCHVDEVRQSSWTTSNLWGQGTQVTVSSGGGGSGGGGSGGGGSVQLQESGGGLVQPGGSLRLSCAASGSIFSINLMGWYRQAPGKQRELVATITRGGNTNYAGSVKGRFTISRDNAKNTVYLQMNSLRPEDTAVYYCHVDEVRQSSWTTSNLWGQGTQVTVSSGGGGSGGGGSGGGGSVQLQESGGGLVQPGGSLRLSCAASGSNFRINTMGWYRQAPGKQRELVATVTRGGSTNYADSVKGRFTISRDNPKDTVYLQMNSLRPEDTAVYYCHVDEVRESSWTTSNLWGQGTQVTVSS
binds: all assays above

B7: A4-C4 (bispecific antibody)
chain: VQLQESGGGLVQAGGSLRLSCAASGSRFSINTMGWYRQAPGKQREFVATVTRGGNTNYAESVKGRFTISRDNAKNTVYLQMNSLRPEDTAVYYCHVDEVRDSSWTTSNIWGQGTQVTVSSGGGGSGGGGSGGGGSVQLQESGGGLVQAGGSLRLSCAASGSRFSINTMGWYRQAPGKQREFVATVTRGGNTNYAESVKGRFTISRDNAKNTVYLQMNSLRPEDTAVYYCHVDEVRDSSWTTSNIWGQGTQVTVSSGGGGSGGGGSGGGGSVQLQESGGGLVQPGGSLRLSCAASGSNFRINTMGWYRQAPGKQRELVATVTRGGSTNYADSVKGRFTISRDNPKDTVYLQMNSLRPEDTAVYYCHVDEVRESSWTTSNLWGQGTQVTVSS
binds: all assays above

B8: A4-C5 (bispecific antibody)
chain: VQLQESGGGLVQPGGSLRLSCAASGSNFRINTMGWYRQAPGKQRELVATVTRGGSTNYADSVKGRFTISRDNPKNTVYLQMNSLRPEDTAVYYCHVDEVRESSWTTSNLWGQGTQVTVSSGGGGSGGGGSGGGGSVQLQESGGGLVQPGGSLRLSCAASGSNFSINTMGWYRQAPGKQRELVATVTRGGDTNYADSVKGRFTISRDNAKNTVYLQMNSLRPEDTAVYYCHVDEIRESSWTTSNLWGQGTQVTVSSGGGGSGGGGSGGGGSVQLQESGGGLVQPGGSLRLSCAASGSNFRINTMGWYRQAPGKQRELVATVTRGGSTNYADSVKGRFTISRDNPKNTVYLQMNSLRPEDTAVYYCHVDEVRESSWTTSNLWGQGTQVTVSS
binds: all assays above

B9: A4-C6 (bispecific antibody)
chain: VQLQESGGGLVQPGGSLRLSCAASGSNFRINTMGWYRQAPGKQRELVAPVTRGGSTNYADSVKGRFTISRDNAKNTVYLQMNSLRPEDTAVYYCHVDEVRESSWTTSNLWGQGTQVTVSSGGGGSGGGGSGGGGSVQLQESGGGLVQPGGSLRLSCAASGSNFSINTMGWYRQAPGKQRELVAALTRGGSTNYADSVKGRFTISRDNAKNTVYLQMNSLRPEDTAVYYCHVDEVRESSWTTSNLWGQGTQVTVSSGGGGSGGGGSGGGGSVQLQESGGGLVQPGGSLRLSCAASGSNFSINTMGWYRQAPGKQRELVATVTRGGDTNYADSVKGRFTISRDNAKNTVYLQMNSLRPEDTAVYYCHVDEIRESSWTTSNLWGQGTQVTVSS
binds: all assays above

B10: A4-C7 (bispecific antibody)
chain: VQLQESGGGLVQPGGSLRLSCAASGSNFSINTMGWYRQAPGKQRELVATVTRGGDTNYADSVKGRFTISRDNAKNTVYLQMNSLRPEDTAVYYCHVDEIRESSWTTSNLWGQGTQVTVSSGGGGSGGGGSGGGGSVQLQESGGGLVQPGGSLRLSCAASGSNFRINTMGWYRQAPGKQRELVAPVTRGGSTNYADSVKGRFTISRDNAKNTVYLQMNSLRPEDTAVYYCHVDEVRESSWTTSNLWGQGTQVTVSSGGGGSGGGGSGGGGSVQLQESGGGLVQPGGSLRLSCAASGSSFTINTMGWYRQAPGKQRELVAAVTRGGSTNYAGSVKGRFTISRDNAKNTIYLQMNSLRPEDTAVYYCHVDEIRQSSWTTSNLWGQGTQVTVSS
binds: all assays above

B11: A4-C8 (bispecific antibody)
chain: VQLQESGGGLVQPGGSLRLSCAASGSNFRINTMGWYRQAPGKQRELVAPVTRGGSTNYADSVKGRFTISRDNAKNTVYLQMNSLRPEDTAVYYCHVDEVRESSWTTSNLWGQGTQVTVSSGGGGSGGGGSGGGGSVQLQESGGGLVQPGGSLRLSCAASGSNFSINTMGWYRQAPGKQRELVATVTRGGDTNYADSVKGRFTISRDNAKNTVYLQMNSLRPEDTAVYYCHVDEIRESSWTTSNLWGQGTQVTVSSGGGGSGGGGSGGGGSVQLQESGGGLVQPGGSLRLSCAASGSNFSINTMGWYRQAPGKQRELVAALTRGGSTNYADSVKGRFTISRDNAKNTVYLQMNSLRPEDTAVYYCHVDEVRESSWTTSNLWGQGTQVTVSS
binds: all assays above

B12: A4-C9 (bispecific antibody)
chain: VQLQESGGGLVQPGGSLRLSCAASGSNFSINTMGWYRQAPGKQRELVATVTRGGDTNYADSVKGRFTISRDNAKNTVYLQMNSLRPEDTAVYYCHVDEIRESSWTTSNLWGQGTQVTVSSGGGGSGGGGSGGGGSVQLQESGGGLVQPGGSLRLSCAASGSNFSINTMGWYRQAPGKQRELVAALTRGGSTNYADSVKGRFTISRDNAKNTVYLQMNSLRPEDTAVYYCHVDEVRESSWTTSNLWGQGTQVTVSSGGGGSGGGGSGGGGSVQLQESGGGLVQPGGSLRLSCAASGSNFRINTMGWYRQAPGKQRELVAPVTRGGSTNYADSVKGRFTISRDNAKNTVYLQMNSLRPEDTAVYYCHVDEVRESSWTTSNLWGQGTQVTVSS
binds: all assays above

B13: A4-D1 (VHH)
chain: VQLQESGGGLAQAGGSLRLSCAASGRGFSINTMGWYRQAPGKQRELVAAVTRGGTTNYADSVKGRFTISRDNAKNTVYLQMNSLRPEDTAVYYCHVDEVRQSSWTTSNLWGQGTQVTVSSGGGGSGGGGSGGGGSVQLQESGGGLAQAGGSLRLSCAASGRGFSINTMGWYRQAPGKQRELVAAVTRGGTTNYADSVKGRFTISRDNAKNTVYLQMNSLRPEDTAVYYCHVDEVRQSSWTTSNLWGQGTQVTVSSGGGGSGGGGSGGGGSVQLQESGGGLAQAGGSLRLSCAASGRGFSINTMGWYRQAPGKQRELVAAVTRGGTTNYADSVKGRFTISRDNAKNTVYLQMNSLRPEDTAVYYCHVDEVRQSSWTTSNLWGQGTQVTVSSGGGGSGGGGSGGGGSVQLQESGGGLAQAGGSLRLSCAASGRGFSINTMGWYRQAPGKQRELVAAVTRGGTTNYADSVKGRFTISRDNAKNTVYLQMNSLRPEDTAVYYCHVDEVRQSSWTTSNLWGQGTQVTVSS
binds: all assays above
